Values from PubChem BioAssay AID1259405 (NCATS, 2018).

Aim: 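Mouse-designed siRNAs used to find CHO productivity engineering targets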 (primary screen)
System: Chinese hamster CHO-K1 ovary cells with stable secreted eGFP expression
Reagents: single siRNA against mouse genes, 0.8 pmol siRNA per well (2 µl of 400 nM stock)
Time to read-out: 3 days
Measured: 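Percent of the per-plate non-targeting control median for intracellular GFP per well by laser scanning cytometry and for cell viability by ATP luminescence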
Scale: GFP, % of control: higher = more GFP per well, higher productivity; viability (ATP), % of control: higher = more viable cells (more ATP)
Rule for the call: 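a knock-down is called active if GFP reaches 120% or more of non-targeting control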
This is an unselected part of about 50,000 deposited reagents. About 4,000 of them (8%) were called active. 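Mouse siRNA library applied to hamster cells; one well for each siRNA.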 Reagents against one gene are numbered here.

| gene symbol | reagent no. | GFP, % of control | viability (ATP), % of control | outcome |
| --- | --- | --- | --- | --- |
| Il7r (GeneID 16197) | 1 | 86.4 | 77.6 | inactive |
| Il7r (GeneID 16197) | 2 | 72.9 | 80.8 | inactive |
| Pex1 (GeneID 71382) | 1 | 107 | 90.6 | inactive |
| Pex1 (GeneID 71382) | 2 | 87.2 | 72.4 | inactive |
| Fstl5 (GeneID 213262) | 1 | 78.4 | 66.9 | inactive |
| Fstl5 (GeneID 213262) | 2 | 120 | 132 | active |
| Foxj3 (GeneID 230700) | 1 | 88.4 | 26 | inactive |
| Foxj3 (GeneID 230700) | 2 | 64.1 | 60.9 | inactive |
| Foxj3 (GeneID 230700) | 3 | 68.9 | 78.5 | inactive |
| Mcl1 (GeneID 17210) | 1 | 87.9 | 90.6 | inactive |
| Mcl1 (GeneID 17210) | 2 | 27.8 | 51.5 | inactive |
| Mcl1 (GeneID 17210) | 3 | 45.2 | 101 | inactive |
| Tbcd (GeneID 108903) | 1 | 43.5 | 78.3 | inactive |
| Tbcd (GeneID 108903) | 2 | 50.8 | 55 | inactive |
| Tbcd (GeneID 108903) | 3 | 76.5 | 72.7 | inactive |
| Eif1ax (GeneID 66235) | 1 | 81.4 | 89.2 | inactive |
| Eif1ax (GeneID 66235) | 2 | 45.5 | 55 | inactive |
| Eif1ax (GeneID 66235) | 3 | 79 | 77.9 | inactive |
| Depdc7 (GeneID 211896) | 1 | 72.2 | 68.5 | inactive |
| Depdc7 (GeneID 211896) | 2 | 110 | 114 | inactive |
| Depdc7 (GeneID 211896) | 3 | 111 | 80.4 | inactive |
| Clvs1 (GeneID 74438) | 1 | 67.6 | 48 | inactive |
| Clvs1 (GeneID 74438) | 2 | 77.9 | 94.6 | inactive |
| Clvs1 (GeneID 74438) | 3 | 106 | 115 | inactive |
| Utp25 (GeneID 215193) | 1 | 89.4 | 69.7 | inactive |
| Utp25 (GeneID 215193) | 2 | 18.9 | 46.6 | inactive |
| Utp25 (GeneID 215193) | 3 | 74.8 | 81.5 | inactive |
| Adam29 (GeneID 244486) | 1 | 102 | 92.3 | inactive |
| Adam29 (GeneID 244486) | 2 | 94.3 | 52.7 | inactive |
| Adam29 (GeneID 244486) | 3 | 94.6 | 82.9 | inactive |

Active calls, among the entries above:
| gene symbol | reagent no. | GFP, % of control | viability (ATP), % of control | outcome |
| --- | --- | --- | --- | --- |
| Fstl5 (GeneID 213262) | 2 | 120 | 132 | active |

The results go on.
| gene symbol | reagent no. | GFP, % of control | viability (ATP), % of control | outcome |
| --- | --- | --- | --- | --- |
| Tes (GeneID 21753) | 1 | 23.4 | 47.2 | inactive |
| Tes (GeneID 21753) | 2 | 38.9 | 51.5 | inactive |
| Cox7a1 (GeneID 12865) | 1 | 248 | 130 | active |
| Cox7a1 (GeneID 12865) | 2 | 86.3 | 87 | inactive |
| Cox7a1 (GeneID 12865) | 3 | 54.4 | 56.6 | inactive |
| Klhdc1 (GeneID 271005) | 1 | 43.2 | 53.4 | inactive |
| Klhdc1 (GeneID 271005) | 2 | 55.9 | 62.2 | inactive |
| Klhdc1 (GeneID 271005) | 3 | 90.9 | 65.7 | inactive |
| Il1rn (GeneID 16181) | 1 | 66.9 | 62.4 | inactive |
| Il1rn (GeneID 16181) | 2 | 54 | 54 | inactive |
| Il1rn (GeneID 16181) | 3 | 53.5 | 76.2 | inactive |
| Insig1 (GeneID 231070) | 1 | 38.3 | 53.6 | inactive |
| Insig1 (GeneID 231070) | 2 | 33.3 | 56.5 | inactive |
| Insig1 (GeneID 231070) | 3 | 87.7 | 74.2 | inactive |
| Gbp9 (GeneID 236573) | 1 | 116 | 110 | inactive |
| Gbp9 (GeneID 236573) | 2 | 76.3 | 103 | inactive |
| Gbp9 (GeneID 236573) | 3 | 20.8 | 38.5 | inactive |
| Tecta (GeneID 21683) | 1 | 66.6 | 66.1 | inactive |
| Tecta (GeneID 21683) | 2 | 111 | 81.7 | inactive |
| Tecta (GeneID 21683) | 3 | 70.3 | 75.1 | inactive |
| Dhps (GeneID 330817) | 1 | 88.3 | 114 | inactive |
| Dhps (GeneID 330817) | 2 | 50.5 | 56.3 | inactive |
| Dhps (GeneID 330817) | 3 | 128 | 111 | active |
| Foxl2 (GeneID 26927) | 1 | 73.7 | 124 | inactive |
| Foxl2 (GeneID 26927) | 2 | 68.2 | 76.3 | inactive |
| Def6 (GeneID 23853) | 1 | 68.3 | 96.4 | inactive |
| Def6 (GeneID 23853) | 2 | 57.2 | 70.1 | inactive |
| Def6 (GeneID 23853) | 3 | 160 | 78.9 | active |
| Rnf10 (GeneID 50849) | 1 | 112 | 106 | inactive |
| Rnf10 (GeneID 50849) | 2 | 50.6 | 50 | inactive |
| Rnf10 (GeneID 50849) | 3 | 72.1 | 72.8 | inactive |
| Ino80 (GeneID 68142) | 1 | 67.6 | 51.9 | inactive |
| Ino80 (GeneID 68142) | 2 | 98.8 | 67.9 | inactive |
| Ino80 (GeneID 68142) | 3 | 76.5 | 71.3 | inactive |
| Man2b1 (GeneID 17159) | 1 | 84.3 | 137 | inactive |
| Man2b1 (GeneID 17159) | 2 | 63.3 | 89.7 | inactive |
| Man2b1 (GeneID 17159) | 3 | 65.2 | 81.6 | inactive |
| Actr5 (GeneID 109275) | 1 | 74.9 | 74.3 | inactive |
| Actr5 (GeneID 109275) | 2 | 81.6 | 82.1 | inactive |
| Gab1 (GeneID 14388) | 1 | 48.7 | 55.3 | inactive |
| Gab1 (GeneID 14388) | 2 | 85.2 | 105 | inactive |
| Gab1 (GeneID 14388) | 3 | 52.5 | 73.8 | inactive |
| Pnrc2 (GeneID 52830) | 1 | 82.5 | 85.7 | inactive |
| Pnrc2 (GeneID 52830) | 2 | 96.1 | 63.6 | inactive |
| Pnrc2 (GeneID 52830) | 3 | 80 | 70.5 | inactive |
| Fbxo22 (GeneID 71999) | 1 | 57.3 | 83.8 | inactive |
| Fbxo22 (GeneID 71999) | 2 | 84.1 | 80.6 | inactive |
| Fbxo22 (GeneID 71999) | 3 | 97.4 | 85.2 | inactive |
| Or52e15 (GeneID 258755) | 1 | 88 | 68.4 | inactive |
| Or52e15 (GeneID 258755) | 2 | 54.4 | 48.3 | inactive |
| Or52e15 (GeneID 258755) | 3 | 108 | 118 | inactive |
| Mitf (GeneID 17342) | 1 | 105 | 84.1 | inactive |
| Mitf (GeneID 17342) | 2 | 74.3 | 81.5 | inactive |
| Mitf (GeneID 17342) | 3 | 83.6 | 74.6 | inactive |
